By UniProt entry, the sequences of proteins in these tests, tags left out. Where a name states a change or a piece, a line headed by the entry shows the natural chain unless it says otherwise.
UniProt Q8WV16: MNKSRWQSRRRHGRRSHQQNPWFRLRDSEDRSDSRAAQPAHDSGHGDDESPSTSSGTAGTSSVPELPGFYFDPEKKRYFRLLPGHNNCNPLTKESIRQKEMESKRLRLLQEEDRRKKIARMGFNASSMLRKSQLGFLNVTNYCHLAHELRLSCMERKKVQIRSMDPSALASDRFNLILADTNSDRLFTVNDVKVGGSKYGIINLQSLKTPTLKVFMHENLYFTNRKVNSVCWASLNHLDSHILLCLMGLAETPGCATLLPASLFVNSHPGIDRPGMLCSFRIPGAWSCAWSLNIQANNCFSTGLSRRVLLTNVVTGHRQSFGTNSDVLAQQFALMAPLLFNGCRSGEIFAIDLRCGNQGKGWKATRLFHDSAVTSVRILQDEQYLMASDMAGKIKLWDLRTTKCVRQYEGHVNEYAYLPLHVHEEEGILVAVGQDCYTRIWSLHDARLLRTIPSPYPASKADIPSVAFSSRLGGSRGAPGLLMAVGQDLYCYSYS
UniProt P00167, whole entry, looked up: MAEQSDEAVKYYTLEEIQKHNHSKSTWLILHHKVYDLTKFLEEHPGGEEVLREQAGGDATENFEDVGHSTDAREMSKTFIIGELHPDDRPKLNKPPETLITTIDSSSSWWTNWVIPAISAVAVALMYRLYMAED
UniProt Q58WW2: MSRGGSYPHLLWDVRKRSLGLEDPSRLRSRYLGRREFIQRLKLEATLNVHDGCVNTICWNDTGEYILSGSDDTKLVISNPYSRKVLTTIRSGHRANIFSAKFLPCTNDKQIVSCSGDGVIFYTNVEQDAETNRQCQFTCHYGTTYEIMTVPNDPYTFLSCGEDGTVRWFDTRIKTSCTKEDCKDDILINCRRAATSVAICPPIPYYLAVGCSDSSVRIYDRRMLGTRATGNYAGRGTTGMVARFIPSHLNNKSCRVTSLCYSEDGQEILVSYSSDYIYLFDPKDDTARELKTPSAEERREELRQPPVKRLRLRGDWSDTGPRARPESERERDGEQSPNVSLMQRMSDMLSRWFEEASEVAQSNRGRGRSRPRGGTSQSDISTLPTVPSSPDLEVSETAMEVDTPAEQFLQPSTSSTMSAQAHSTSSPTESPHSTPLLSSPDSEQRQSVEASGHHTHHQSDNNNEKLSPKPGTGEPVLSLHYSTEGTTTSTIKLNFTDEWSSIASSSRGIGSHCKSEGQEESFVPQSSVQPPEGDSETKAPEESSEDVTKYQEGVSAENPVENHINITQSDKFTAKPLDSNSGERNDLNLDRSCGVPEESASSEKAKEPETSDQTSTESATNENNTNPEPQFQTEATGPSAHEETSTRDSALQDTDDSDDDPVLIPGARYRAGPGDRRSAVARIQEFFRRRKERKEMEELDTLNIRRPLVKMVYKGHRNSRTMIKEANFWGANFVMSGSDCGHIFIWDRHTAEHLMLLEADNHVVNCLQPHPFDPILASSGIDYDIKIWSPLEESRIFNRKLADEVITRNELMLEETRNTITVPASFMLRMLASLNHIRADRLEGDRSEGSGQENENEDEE
UniProt Q9UJU6: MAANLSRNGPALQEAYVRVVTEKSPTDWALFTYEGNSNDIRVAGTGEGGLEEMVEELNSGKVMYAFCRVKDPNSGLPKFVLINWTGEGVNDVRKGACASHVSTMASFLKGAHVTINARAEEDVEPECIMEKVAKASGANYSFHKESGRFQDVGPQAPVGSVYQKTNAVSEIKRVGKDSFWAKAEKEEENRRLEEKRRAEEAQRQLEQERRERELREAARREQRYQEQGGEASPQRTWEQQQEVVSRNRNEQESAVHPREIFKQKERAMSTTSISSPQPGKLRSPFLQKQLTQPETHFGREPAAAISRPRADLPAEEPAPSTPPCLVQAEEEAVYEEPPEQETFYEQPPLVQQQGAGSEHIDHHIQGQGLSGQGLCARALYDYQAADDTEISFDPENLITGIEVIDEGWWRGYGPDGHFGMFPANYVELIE
UniProt Q14203, whole entry, looked up: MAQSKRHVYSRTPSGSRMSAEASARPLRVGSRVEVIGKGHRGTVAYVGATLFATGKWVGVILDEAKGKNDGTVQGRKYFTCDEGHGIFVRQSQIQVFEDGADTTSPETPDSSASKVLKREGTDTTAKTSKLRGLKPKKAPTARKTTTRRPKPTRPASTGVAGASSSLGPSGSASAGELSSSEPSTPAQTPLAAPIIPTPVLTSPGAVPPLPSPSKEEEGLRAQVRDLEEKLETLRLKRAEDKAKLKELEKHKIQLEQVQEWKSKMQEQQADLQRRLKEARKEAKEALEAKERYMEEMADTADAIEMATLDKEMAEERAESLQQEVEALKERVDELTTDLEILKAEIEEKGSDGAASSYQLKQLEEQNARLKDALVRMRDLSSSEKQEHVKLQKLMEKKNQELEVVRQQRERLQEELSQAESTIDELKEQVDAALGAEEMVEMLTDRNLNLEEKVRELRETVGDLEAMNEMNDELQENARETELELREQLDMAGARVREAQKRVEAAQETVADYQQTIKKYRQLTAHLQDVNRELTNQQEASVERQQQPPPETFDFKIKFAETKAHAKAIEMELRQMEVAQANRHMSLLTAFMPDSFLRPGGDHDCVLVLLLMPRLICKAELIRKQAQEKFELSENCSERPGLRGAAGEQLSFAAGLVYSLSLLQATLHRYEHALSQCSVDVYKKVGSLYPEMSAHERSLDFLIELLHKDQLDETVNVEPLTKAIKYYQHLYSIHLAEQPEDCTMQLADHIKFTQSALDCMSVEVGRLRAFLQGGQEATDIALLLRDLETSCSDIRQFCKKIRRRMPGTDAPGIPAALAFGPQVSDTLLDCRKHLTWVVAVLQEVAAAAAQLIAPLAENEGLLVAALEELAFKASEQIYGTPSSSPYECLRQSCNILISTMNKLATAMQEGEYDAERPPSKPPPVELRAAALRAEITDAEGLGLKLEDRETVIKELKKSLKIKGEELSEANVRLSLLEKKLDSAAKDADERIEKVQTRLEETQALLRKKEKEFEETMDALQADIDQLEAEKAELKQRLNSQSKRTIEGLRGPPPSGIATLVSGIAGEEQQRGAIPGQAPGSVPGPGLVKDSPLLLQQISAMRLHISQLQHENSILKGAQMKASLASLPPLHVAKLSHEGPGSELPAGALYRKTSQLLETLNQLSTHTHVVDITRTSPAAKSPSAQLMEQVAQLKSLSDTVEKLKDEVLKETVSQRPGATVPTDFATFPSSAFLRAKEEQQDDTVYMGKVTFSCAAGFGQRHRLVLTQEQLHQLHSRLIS
UniProt Q9NV06: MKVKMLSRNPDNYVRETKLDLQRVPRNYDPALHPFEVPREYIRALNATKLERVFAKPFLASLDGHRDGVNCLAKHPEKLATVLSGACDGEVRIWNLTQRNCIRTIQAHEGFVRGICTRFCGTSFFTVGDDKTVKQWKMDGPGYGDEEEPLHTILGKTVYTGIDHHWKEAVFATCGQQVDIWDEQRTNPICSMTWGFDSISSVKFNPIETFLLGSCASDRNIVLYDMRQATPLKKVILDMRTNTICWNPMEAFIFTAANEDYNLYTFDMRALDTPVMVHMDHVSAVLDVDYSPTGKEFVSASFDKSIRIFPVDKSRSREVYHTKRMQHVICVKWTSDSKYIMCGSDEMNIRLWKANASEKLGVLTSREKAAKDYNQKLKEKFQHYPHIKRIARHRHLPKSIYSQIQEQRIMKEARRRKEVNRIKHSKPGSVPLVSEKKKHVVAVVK
UniProt Q16643: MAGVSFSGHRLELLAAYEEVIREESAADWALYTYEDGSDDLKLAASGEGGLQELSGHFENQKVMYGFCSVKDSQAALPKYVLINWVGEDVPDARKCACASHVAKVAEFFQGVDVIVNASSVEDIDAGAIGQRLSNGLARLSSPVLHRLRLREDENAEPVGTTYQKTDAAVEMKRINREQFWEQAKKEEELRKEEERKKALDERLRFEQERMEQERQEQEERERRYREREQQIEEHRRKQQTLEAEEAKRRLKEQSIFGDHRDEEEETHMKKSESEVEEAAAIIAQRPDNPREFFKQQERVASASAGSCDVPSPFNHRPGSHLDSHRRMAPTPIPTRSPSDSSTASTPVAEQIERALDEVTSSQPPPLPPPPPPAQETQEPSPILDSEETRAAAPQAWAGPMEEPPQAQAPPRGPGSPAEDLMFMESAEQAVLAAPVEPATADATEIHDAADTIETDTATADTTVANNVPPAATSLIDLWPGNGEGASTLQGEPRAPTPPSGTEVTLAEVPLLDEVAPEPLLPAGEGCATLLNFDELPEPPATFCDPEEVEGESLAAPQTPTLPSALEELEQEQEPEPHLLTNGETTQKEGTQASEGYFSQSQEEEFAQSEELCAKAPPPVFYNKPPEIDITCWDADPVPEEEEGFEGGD
UniProt P53634: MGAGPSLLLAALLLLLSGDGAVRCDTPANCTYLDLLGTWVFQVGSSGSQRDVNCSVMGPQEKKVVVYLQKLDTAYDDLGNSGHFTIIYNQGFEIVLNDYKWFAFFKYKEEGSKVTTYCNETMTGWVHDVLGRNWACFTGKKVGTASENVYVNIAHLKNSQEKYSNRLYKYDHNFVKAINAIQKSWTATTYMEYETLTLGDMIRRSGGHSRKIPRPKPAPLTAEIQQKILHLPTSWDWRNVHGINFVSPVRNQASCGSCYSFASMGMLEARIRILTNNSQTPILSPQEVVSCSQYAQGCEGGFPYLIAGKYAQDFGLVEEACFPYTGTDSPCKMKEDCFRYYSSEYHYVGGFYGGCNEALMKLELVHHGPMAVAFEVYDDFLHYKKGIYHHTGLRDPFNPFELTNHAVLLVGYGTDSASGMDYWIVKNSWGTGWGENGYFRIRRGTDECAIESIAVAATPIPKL
UniProt Q9NXF7, whole entry, looked up: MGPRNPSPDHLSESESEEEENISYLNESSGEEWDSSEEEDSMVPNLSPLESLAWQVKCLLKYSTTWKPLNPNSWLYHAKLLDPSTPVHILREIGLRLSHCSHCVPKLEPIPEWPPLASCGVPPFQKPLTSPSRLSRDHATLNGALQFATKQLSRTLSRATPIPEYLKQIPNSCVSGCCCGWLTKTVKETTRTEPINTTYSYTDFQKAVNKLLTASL
UniProt P33240: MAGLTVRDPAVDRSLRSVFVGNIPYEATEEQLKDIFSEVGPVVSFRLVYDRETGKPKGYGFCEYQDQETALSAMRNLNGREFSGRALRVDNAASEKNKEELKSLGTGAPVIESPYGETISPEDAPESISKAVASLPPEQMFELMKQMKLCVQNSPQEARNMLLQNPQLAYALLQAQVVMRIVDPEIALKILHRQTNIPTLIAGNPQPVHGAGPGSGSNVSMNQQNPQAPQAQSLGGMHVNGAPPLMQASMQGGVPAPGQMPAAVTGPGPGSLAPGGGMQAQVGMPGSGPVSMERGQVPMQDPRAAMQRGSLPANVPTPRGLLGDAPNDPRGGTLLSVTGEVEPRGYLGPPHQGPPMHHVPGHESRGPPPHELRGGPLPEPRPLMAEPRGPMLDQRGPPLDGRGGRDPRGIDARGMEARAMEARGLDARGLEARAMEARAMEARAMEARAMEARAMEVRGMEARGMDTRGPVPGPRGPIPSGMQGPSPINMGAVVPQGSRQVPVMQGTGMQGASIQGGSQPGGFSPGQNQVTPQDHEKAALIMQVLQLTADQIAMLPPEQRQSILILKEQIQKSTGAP
UniProt Q9H773: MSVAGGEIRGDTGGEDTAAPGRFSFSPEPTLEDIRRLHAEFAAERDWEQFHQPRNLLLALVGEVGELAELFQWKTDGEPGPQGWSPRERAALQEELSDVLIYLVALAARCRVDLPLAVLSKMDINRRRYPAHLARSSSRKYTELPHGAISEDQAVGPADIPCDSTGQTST
UniProt Q9H1C7: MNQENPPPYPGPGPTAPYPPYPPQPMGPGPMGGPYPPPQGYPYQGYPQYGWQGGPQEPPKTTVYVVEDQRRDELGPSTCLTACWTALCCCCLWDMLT
UniProt P50461: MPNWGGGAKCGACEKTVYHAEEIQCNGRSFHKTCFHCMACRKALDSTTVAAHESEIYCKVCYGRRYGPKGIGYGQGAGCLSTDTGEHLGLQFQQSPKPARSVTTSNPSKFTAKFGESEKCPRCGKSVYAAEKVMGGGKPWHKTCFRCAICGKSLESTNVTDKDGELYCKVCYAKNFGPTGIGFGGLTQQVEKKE
UniProt Q8NA75: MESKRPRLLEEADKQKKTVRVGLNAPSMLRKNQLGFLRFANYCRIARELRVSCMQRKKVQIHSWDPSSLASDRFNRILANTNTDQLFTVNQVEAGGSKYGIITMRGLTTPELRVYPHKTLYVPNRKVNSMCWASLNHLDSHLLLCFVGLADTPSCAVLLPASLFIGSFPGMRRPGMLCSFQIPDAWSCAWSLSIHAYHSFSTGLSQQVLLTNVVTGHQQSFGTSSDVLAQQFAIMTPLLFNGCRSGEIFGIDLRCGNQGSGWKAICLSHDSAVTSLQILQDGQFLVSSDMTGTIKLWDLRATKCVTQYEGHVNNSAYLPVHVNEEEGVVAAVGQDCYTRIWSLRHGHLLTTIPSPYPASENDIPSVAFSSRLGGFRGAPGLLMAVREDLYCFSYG
UniProt Q16527: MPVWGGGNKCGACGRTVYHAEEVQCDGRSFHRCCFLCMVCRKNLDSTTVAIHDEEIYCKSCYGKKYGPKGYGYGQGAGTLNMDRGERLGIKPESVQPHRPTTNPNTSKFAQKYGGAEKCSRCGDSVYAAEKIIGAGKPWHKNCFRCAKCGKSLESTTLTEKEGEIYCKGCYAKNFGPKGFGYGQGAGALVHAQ

Some of the results follow.
The targets below were run with CCCCN(Cc1ccc(C(=O)NO)cc1)C(=O)Nc1ccccc1 [Nexturastat A] (assay: log2 fold change, soluble protein after heating vs DMSO (PISA); higher = thermal stabilisation; K562 cells, 10 uM, 30 min; active = over 0.2 and 3.5 SD of the protein, either way, in both replicates (recomputed)).
Outline: (§1)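 For each measurement, 10 μM compound was applied for 30 min to K562 cells at 2×10^6 cells/mL. Aliquots were heated for 3 min across 48°C-58°C, pooled, and extracted in PBS with 0.5% NP-40 at 4°C; the supernatant after 21,000xg for 90 min was soluble protein. This was quantified by TMTpro 16plex LC-MS/MS with channel sums equalised, and thermal stability was reported relative to control samples from duplicates, on a log2 fold-change scale.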
CTU1 (UniProt Q7Z7A3) was tested, and the log2 fold change was inactive: -0.022.
With DCAF4 (UniProt Q8WV16) the log2 fold change was inactive: -0.132.
With CYB5A (UniProt P00167) the log2 fold change was inactive: 0.031.
With DCUN1D1 (UniProt Q96GG9) the log2 fold change was inactive: 0.018.
With DCAF6 isoform 3 (UniProt Q58WW2) the log2 fold change was inactive: -0.041.
In the case of CTR9 (UniProt Q6PD62), the log2 fold change is reported as inactive: 0.211.
With DBNL isoform 3 (UniProt Q9UJU6) the log2 fold change was inactive: -0.082.
With CTSZ (UniProt Q9UBR2) the log2 fold change was inactive: -0.009.
For DCTN1 isoform 4 (UniProt Q14203), the log2 fold change was inactive: 0.116.
With CYBA (UniProt P13498) the log2 fold change was inactive: -0.033.
For CT55 (UniProt Q8WUE5), the log2 fold change was inactive: -0.02.
DCAF13 (UniProt Q9NV06) was tested, and the log2 fold change was inactive: 0.205.
For DBT (UniProt P11182), the log2 fold change was inactive: 0.024.
In the case of DBN1 isoform 3 (UniProt Q16643), the log2 fold change is reported as inactive: 0.104.
With CTSH (UniProt P09668) the log2 fold change was inactive: -0.047.
In the case of DCP2 (UniProt Q8IU60), the log2 fold change is reported as inactive: 0.174.
CTSC (UniProt P53634) was tested, and the log2 fold change was inactive: -0.009.
CTNND1 (UniProt O60716) was tested, and the log2 fold change was inactive: 0.432.
DCAF16 (UniProt Q9NXF7) was tested, and the log2 fold change was inactive: 0.063.
In the case of CSTF2 (UniProt P33240), the log2 fold change is reported as inactive: 0.026.
CTSB (UniProt P07858) was tested, and the log2 fold change was inactive: -0.059.
With DAPK1 isoform 3 (UniProt P53355) the log2 fold change was inactive: 0.4.
With DCTPP1 (UniProt Q9H773) the log2 fold change was inactive: 0.067.
CTIF (UniProt O43310) was tested, and the log2 fold change was inactive: 0.043.
For CWC25 (UniProt Q9NXE8), the log2 fold change was inactive: 0.172.
DAB2 (UniProt P98082) was tested, and the log2 fold change was inactive: 0.058.
CYP51A1 (UniProt Q16850) was tested, and the log2 fold change was inactive: 0.024.
For CTSA (UniProt P10619), the log2 fold change was inactive: -0.016.
For CUX1 isoform 3 (UniProt P39880), the log2 fold change was inactive: -0.013.

The targets below were run with CCCS(=O)(=O)Nc1ccc(F)c(C(=O)c2c[nH]c3ncc(-c4ccc(Cl)cc4)cc23)c1F [vemurafenib] in the same assay as above.
Outline: as §1
With DCTN5 (UniProt Q9BTE1) the log2 fold change was inactive: 0.047.
CTU1 (UniProt Q7Z7A3) was tested, and the log2 fold change was inactive: 0.065.
CYSTM1 (UniProt Q9H1C7) was tested, and the log2 fold change was inactive: 0.015.
For CYB5A (UniProt P00167), the log2 fold change was inactive: 0.077.
In the case of DCUN1D1 (UniProt Q96GG9), the log2 fold change is reported as inactive: 0.008.
With CYP46A1 (UniProt Q9Y6A2) the log2 fold change was inactive: -0.051.
For DCAF6 isoform 3 (UniProt Q58WW2), the log2 fold change was inactive: -0.032.
For CSRP3 (UniProt P50461), the log2 fold change was inactive: -0.111.
With DCAF4L2 (UniProt Q8NA75) the log2 fold change was inactive: -0.041.
For DBNL isoform 3 (UniProt Q9UJU6), the log2 fold change was inactive: 0.07.
In the case of CTSZ (UniProt Q9UBR2), the log2 fold change is reported as inactive: -0.026.
DCTN1 isoform 4 (UniProt Q14203) was tested, and the log2 fold change was inactive: -0.015.
With CTSS (UniProt P25774) the log2 fold change was inactive: -0.053.
In the case of CYBA (UniProt P13498), the log2 fold change is reported as inactive: 0.
For CT55 (UniProt Q8WUE5), the log2 fold change was inactive: -0.01.
DCAF13 (UniProt Q9NV06) was tested, and the log2 fold change was inactive: -0.117.
In the case of CSRP2 (UniProt Q16527), the log2 fold change is reported as inactive: -0.004.
DBT (UniProt P11182) was tested, and the log2 fold change was inactive: -0.011.
In the case of DBN1 isoform 3 (UniProt Q16643), the log2 fold change is reported as inactive: 0.075.
For CTSH (UniProt P09668), the log2 fold change was inactive: 0.023.
With DCP2 (UniProt Q8IU60) the log2 fold change was inactive: 0.064.
For CTSC (UniProt P53634), the log2 fold change was inactive: 0.035.
For DAXX (UniProt Q9UER7), the log2 fold change was inactive: -0.058.
CTNND1 (UniProt O60716) was tested, and the log2 fold change was inactive: 0.003.
With DCAF16 (UniProt Q9NXF7) the log2 fold change was inactive: 0.151.
With CSTF2 (UniProt P33240) the log2 fold change was inactive: 0.016.
With CTSB (UniProt P07858) the log2 fold change was inactive: -0.041.
DCTPP1 (UniProt Q9H773) was tested, and the log2 fold change was inactive: 0.126.
CTIF (UniProt O43310) was tested, and the log2 fold change was inactive: 0.327.
DAB2 (UniProt P98082) was tested, and the log2 fold change was inactive: -0.033.
With CYP51A1 (UniProt Q16850) the log2 fold change was inactive: 0.029.
For CTSA (UniProt P10619), the log2 fold change was inactive: -0.013.
For CUX1 isoform 3 (UniProt P39880), the log2 fold change was inactive: 0.043.

Reference: the supplement of paper PMC10849652
